## Library screening results

Protein sequences, listed by entry. Tags and fused reporters are not part of them.
UniProt E9BF75, entry or part of it: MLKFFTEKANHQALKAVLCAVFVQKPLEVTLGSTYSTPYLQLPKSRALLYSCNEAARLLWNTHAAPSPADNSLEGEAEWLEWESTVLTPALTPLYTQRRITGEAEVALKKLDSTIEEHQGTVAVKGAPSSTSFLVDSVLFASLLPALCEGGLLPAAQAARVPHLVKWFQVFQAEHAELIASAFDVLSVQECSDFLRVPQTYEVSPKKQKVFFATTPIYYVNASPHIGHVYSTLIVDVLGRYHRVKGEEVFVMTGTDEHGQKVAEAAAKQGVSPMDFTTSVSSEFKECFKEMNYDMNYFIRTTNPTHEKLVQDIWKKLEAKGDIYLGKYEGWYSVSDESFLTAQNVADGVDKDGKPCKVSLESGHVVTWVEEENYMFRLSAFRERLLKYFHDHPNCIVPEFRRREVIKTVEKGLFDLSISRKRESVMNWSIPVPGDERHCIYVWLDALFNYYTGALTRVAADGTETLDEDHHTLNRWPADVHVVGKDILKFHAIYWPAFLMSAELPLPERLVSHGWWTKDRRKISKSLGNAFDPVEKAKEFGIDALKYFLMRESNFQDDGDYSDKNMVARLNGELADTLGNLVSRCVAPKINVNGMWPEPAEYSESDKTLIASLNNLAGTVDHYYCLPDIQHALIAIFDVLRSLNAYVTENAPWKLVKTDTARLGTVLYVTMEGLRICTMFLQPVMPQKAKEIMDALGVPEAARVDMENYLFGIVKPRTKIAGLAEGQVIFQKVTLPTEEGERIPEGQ

From ChEMBL document CHEMBL3988442, “University of Dundee, Small-Polar-MMV Screening Library” (2021).

All values are in %.
How 0% and 100% were set is not recorded. Most values in the screen are low, and negative values occur.
The compounds are a random part of those screened.

LdMetRS: 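Primary screen of methionyl-tRNA synthetase; the read-out is not stated. Target: Methionyl-tRNA synthetase (putative), Leishmania donovani (UniProt E9BF75). The test concentration is not given. Values are per cent inhibition. About 68,000 compounds were tested under these conditions; 0.035% (about 24) showed 50% or more at least once.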
Mtb heat-shock: 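Assay on Mycobacterium tuberculosis, filed only as a heat shock assay from Cornell; the read-out is not stated. The concentration is filed as 10 mM, unlikely as a test dose, so the dose is not known. Higher reads as stronger inhibition (inferred: compounds with an IC50 in retests scored well above the rest). Of about 69,000 compounds tested this way, about 930 (1.4%) reached 50% or more in at least one test.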

For N#Cc1ccccc1N1CCCN(CC(=O)Nc2ccccc2Cl)CC1 the result was LdMetRS: 2.338%; Mtb heat-shock: 5.704%. Result for CN(C)CC1CN(Cc2cc(Cl)cc3cccnc23)CCO1 (stereo unspecified) was LdMetRS: 26.57%; Mtb heat-shock: -28.58%. CN(C)C(CNC(=O)NCCS(C)(=O)=O)c1ccco1 (stereo unspecified) gave LdMetRS: 12.36%; Mtb heat-shock: -0.4297%. For Fc1ccc(C(CNc2ccncn2)N2CCCCC2)cc1 (stereo unspecified) the result was LdMetRS: 7.527%; Mtb heat-shock: -8.27%.

O=C(NCc1cn2c(n1)CN(Cc1nccs1)CC2)C1CCC1.O=C(O)C(F)(F)F gave Mtb heat-shock: -13.57%. COc1ccc(C)cc1S(=O)(=O)N[C@H]1CN(C(C)=O)C[C@@H]1C1CC1 read LdMetRS: 14.83%; Mtb heat-shock: 6.011%. CC(C)NC(=O)N1CCN(C(=O)C2CCOCC2)CC2(CNC(=O)C2)C1 (stereo unspecified) gave LdMetRS: 15.85%; Mtb heat-shock: -6.945%. With CC(C)Cc1noc(CN2CCN(c3nccs3)CC2)n1 the screen gave LdMetRS: 5.263%; Mtb heat-shock: -10.08%.

For COc1ccccc1OCCNC1CCCN(Cc2noc(C)n2)C1 (stereo unspecified) the result was LdMetRS: 4.789%; Mtb heat-shock: -21.58%. For CC1(C)CC(NC(=O)c2cnn(-c3ccccc3F)c2N)CC(C)(C)N1 the result was LdMetRS: 6.389%; Mtb heat-shock: 36.87%. CCOCC(O)CN1CCN(C(=O)Cc2cccc(C)c2)CC1 (stereo unspecified) read LdMetRS: 21.86%; Mtb heat-shock: 18.61%. For CS(=O)(=O)N1C[C@H]2CCC[C@@]2(COc2ccccn2)C1 the result was LdMetRS: 12.97%.

For CCc1nnc(SCc2cc(=O)n3c4c(sc3n2)CCCC4)[nH]1 the result was LdMetRS: 17.83%; Mtb heat-shock: 12.66%. Cc1cnc(CN(C)C2CCN(CC(=O)Nc3nncs3)C2)o1 (stereo unspecified) read LdMetRS: 1.408%. CN(C)C(=O)c1cc(-c2ccc(S(C)(=O)=O)cc2)c2cnn(C)c2n1 gave LdMetRS: 6.286%; Mtb heat-shock: 7.775%. With C[C@@H]1CN(C(=O)c2ccc[nH]2)C[C@]12CCN(CCN1CCCC1)C2=O the screen gave LdMetRS: 16.94%.

[H][C@@]12COC[C@H](c3nc(C)no3)[C@]1([H])CN(C(=O)Cc1cccc(F)c1)C2 gave Mtb heat-shock: -17.2%. For CCCc1n[nH]c(C2CN(C(=O)CCn3nc(C)cc3C)CCO2)n1 (stereo unspecified) the result was LdMetRS: 10.17%; Mtb heat-shock: -19.65%. O=C(O)C(F)(F)F.[H][C@@]12CCN(CCc3ccccc3)C[C@@]1([H])[C@H](C(=O)NCC1CC1)CCO2 read Mtb heat-shock: -21.47%. With Cc1ccc(-c2nc(CN(Cc3ccco3)C3CCS(=O)(=O)C3)cs2)o1 (stereo unspecified) the screen gave LdMetRS: 1.381%; Mtb heat-shock: -4.691%.

With COCCN1C[C@H](OCc2csc(C)n2)[C@H]2COC[C@H]21 the screen gave LdMetRS: 18.12%. With CC(C(=O)NN1CCOCC1)n1nc(C(F)(F)F)c(Cl)c1C1CC1 (stereo unspecified) the screen gave LdMetRS: 5.211%; Mtb heat-shock: -25.21%. For CN(C)CC1CSCCCN1C(=O)c1ccc(C(C)(C)C)cc1 (stereo unspecified) the result was LdMetRS: 19.61%; Mtb heat-shock: 4.859%.